Values of other authors, collected in patent EP4714468A1, “METHOD FOR ADMINISTERING MODULATOR TARGETING S1PR1 AND S1PR4” (priority 2023, dated 2024).
At least one compound was matched to its structure with a doubt left.

Key:
T lymphocytes = details: through the suppression of T lymphocytes; cited from earlier work
[1] = tested on: Sphingosine-1 Phosphate (S1P) receptor; details: background art statement; cited from earlier work

| SMILES | therapeutic effect on alopecia areata (T lymphocytes) | binding selectivity among S1P receptor subtypes [1] |
| --- | --- | --- |
| CCS(=O)(=O)N1CC(CC#N)(n2cc(-c3ncnc4[nH]ccc34)cn2)C1 [Baricitinib] | show a therapeutic effect on alopecia areata |  |
| CCCCCCCCc1ccc(CCC(N)(CO)CO)cc1 [Fingolimod, reference compound] |  | non-selectively binds to S1P1, 3, 4 and 5 subtypes |
